# Reference: the supplement of paper PMC8728848
# Some of the results follow.
# Legend:
# Experiment in all cases: glycan array binding signal (z-score within array); higher = stronger binding
# Conditions in all cases: glycan notation: IUPAC condensed, linker removed
# [1] = biological target: Neu5Ac(a2-6)Gal(b1-4)GlcNAc(b1-6)[Gal(b1-3)GlcNAc(b1-3)]Gal(b1-4)Glc
# In short: (§1)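 Columns mapping to the same glycan were averaged after glycan names were converted to IUPAC-condensed notation. The data come from 3228 arrays in the Consortium for Functional Glycomics database, limited to those with an available protein sequence. Binding is reported as a within-array Z-score averaged across arrays of one protein sequence and across linkers.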
# [2] = biological target: Neu5Ac(a2-6)Gal(b1-4)GlcNAc(b1-6)[Gal(b1-3)]GalNAc
# In short: as §1
# [3] = biological target: Neu5Ac(a2-6)Gal(b1-4)GlcNAc6S
# In short: as §1
# [4] = biological target: Neu5Ac(a2-6)GalNAc
# In short: as §1
# [5] = biological target: Neu5Ac(a2-6)GalNAc(b1-4)GlcNAc
# In short: as §1
# [6] = biological target: Neu5Ac(a2-6)GalNAc(b1-4)GlcNAc6S
# In short: as §1
# [7] = biological target: Neu5Ac(a2-6)GlcNAc(b1-4)GlcNAc
# In short: as §1
# [8] = biological target: Neu5Ac(a2-6)GlcNAc(b1-4)GlcNAc(b1-4)GlcNAc
# In short: as §1
# [9] = biological target: Neu5Ac(a2-8)Neu5Ac
# In short: as §1
# [10] = biological target: Neu5Ac(a2-8)Neu5Ac(a2-3)Gal(b1-3)GalNAc(b1-4)[Neu5Ac(a2-3)]Gal(b1-4)Glc
# In short: as §1
# [11] = biological target: Neu5Ac(a2-8)Neu5Ac(a2-3)Gal(b1-3)GalNAc(b1-4)[Neu5Ac(a2-8)Neu5Ac(a2-3)]Gal(b1-4)Glc
# In short: as §1
# [12] = biological target: Neu5Ac(a2-8)Neu5Ac(a2-3)Gal(b1-4)Glc
# In short: as §1
# [13] = biological target: Neu5Ac(a2-8)Neu5Ac(a2-3)Gal(b1-4)GlcNAc
# In short: as §1
# [14] = biological target: Neu5Ac(a2-8)Neu5Ac(a2-3)[Gal(b1-3)GalNAc(b1-4)]Gal(b1-4)Glc
# In short: as §1
# [15] = biological target: Neu5Ac(a2-8)Neu5Ac(a2-3)[GalNAc(b1-4)]Gal(b1-4)Glc
# In short: as §1
# [16] = biological target: Neu5Ac(a2-8)Neu5Ac(a2-8)Neu5Ac
# In short: as §1
# [17] = biological target: Neu5Ac(a2-8)Neu5Ac(a2-8)Neu5Ac(a2-3)Gal(b1-4)Glc
# In short: as §1
# [18] = biological target: Neu5Ac(a2-8)Neu5Ac(a2-8)Neu5Ac(a2-3)[Gal(b1-3)GalNAc(b1-4)]Gal(b1-4)Glc
# In short: as §1
# [19] = biological target: Neu5Ac(a2-8)Neu5Ac(a2-8)Neu5Ac(a2-3)[GalNAc(b1-4)]Gal(b1-4)Glc
# In short: as §1
# [20] = biological target: Neu5Ac(a2-8)Neu5Ac(a2-8)Neu5Ac(a2-8)Neu5Ac(a2-3)[GalNAc(b1-4)]Gal(b1-4)Glc
# In short: as §1
# [21] = biological target: Neu5Ac(a2-8)Neu5Gc(a2-3)Gal(b1-4)GlcNAc
# In short: as §1
# [22] = biological target: Neu5Ac(b2-6)Gal(b1-4)GlcNAc
# In short: as §1
# [23] = biological target: Neu5Ac(b2-6)GalNAc
# In short: as §1
# [24] = biological target: Neu5Ac9Ac(a2-3)Gal(b1-4)GlcNAc
# In short: as §1
# [25] = biological target: Neu5Ac9Ac(a2-6)Gal(b1-4)GlcNAc
# In short: as §1
# [26] = biological target: Neu5Gc(a2-3)Gal(b1-3)GlcNAc
# In short: as §1
# [27] = biological target: Neu5Gc(a2-3)Gal(b1-3)[Fuc(a1-4)]GlcNAc
# In short: as §1
# [28] = biological target: Neu5Gc(a2-3)Gal(b1-4)Glc
# In short: as §1
# [29] = biological target: Neu5Gc(a2-3)Gal(b1-4)GlcNAc
# In short: as §1
# [30] = biological target: Neu5Gc(a2-3)Gal(b1-4)GlcNAc(b1-3)Gal(b1-4)GlcNAc(b1-2)Man(a1-3)[Neu5Gc(a2-3)Gal(b1-4)GlcNAc(b1-3)Gal(b1-4)GlcNAc(b1-2)Man(a1-6)]Man(b1-4)GlcNAc(b1-4)GlcNAc
# In short: as §1
# [31] = biological target: Neu5Gc(a2-3)Gal(b1-4)[Fuc(a1-3)]GlcNAc
# In short: as §1
# [32] = biological target: Neu5Gc(a2-6)Gal(b1-4)GlcNAc
# In short: as §1
# [33] = biological target: Neu5Gc(a2-6)GalNAc
# In short: as §1
# [34] = biological target: Neu5Gc(a2-8)Neu5Ac(a2-3)Gal(b1-4)GlcNAc
# In short: as §1
# [35] = biological target: Neu5Gc(a2-8)Neu5Gc(a2-3)Gal(b1-4)GlcNAc
# In short: as §1
# [36] = biological target: Neu5Gc(a2-8)Neu5Gc(a2-3)Gal(b1-4)GlcNAc(b1-3)Gal(b1-4)GlcNAc
# In short: as §1
# [37] = biological target: Neu5Gc(a2-8)Neu5Gc(a2-6)Gal(b1-4)GlcNAc
# In short: as §1
# [38] = biological target: Neu5Gc(b2-6)Gal(b1-4)GlcNAc
# In short: as §1
binder,measurement,setting,value
Pbx1CASH domain (Cryptococcus neoformans) (protein) MDETKPLWGNPRADGISLACKDSIVERNVVYDATDGAIVLFGSAGSTVKNNHVYARTRVILGGINLVDYEPWDGDYTNVKVHHNHLYALGRYFKVGIVIGPASWSDDTESVVHSASVTDNEFSGGYWGYGIVVASAKNFEVLRNKVIWDGEQGVARFSGVPGS,glycan array binding signal (z-score),[1],0.559
same,glycan array binding signal (z-score),[2],-0.679
same,glycan array binding signal (z-score),[3],-0.597
same,glycan array binding signal (z-score),[4],-0.898
same,glycan array binding signal (z-score),[5],-0.673
same,glycan array binding signal (z-score),[6],0.309
same,glycan array binding signal (z-score),[7],-0.681
same,glycan array binding signal (z-score),[8],-0.307
same,glycan array binding signal (z-score),[9],-0.314
same,glycan array binding signal (z-score),[10],-0.877
same,glycan array binding signal (z-score),[11],0.658
same,glycan array binding signal (z-score),[12],-0.539
same,glycan array binding signal (z-score),[13],-0.081
same,glycan array binding signal (z-score),[14],0.76
same,glycan array binding signal (z-score),[15],-0.908
same,glycan array binding signal (z-score),[16],-0.593
same,glycan array binding signal (z-score),[17],-0.652
same,glycan array binding signal (z-score),[18],-0.815
same,glycan array binding signal (z-score),[19],-0.174
same,glycan array binding signal (z-score),[20],1.35
same,glycan array binding signal (z-score),[21],-0.353
same,glycan array binding signal (z-score),[22],-0.851
same,glycan array binding signal (z-score),[23],-0.772
same,glycan array binding signal (z-score),[24],-0.534
same,glycan array binding signal (z-score),[25],-0.845
same,glycan array binding signal (z-score),[26],-0.691
same,glycan array binding signal (z-score),[27],-0.469
same,glycan array binding signal (z-score),[28],-0.113
same,glycan array binding signal (z-score),[29],-0.444
same,glycan array binding signal (z-score),[30],-0.519
same,glycan array binding signal (z-score),[31],-0.398
same,glycan array binding signal (z-score),[32],-0.114
same,glycan array binding signal (z-score),[33],-0.031
same,glycan array binding signal (z-score),[34],-0.005
same,glycan array binding signal (z-score),[35],-0.561
same,glycan array binding signal (z-score),[36],-0.119
same,glycan array binding signal (z-score),[37],0.346
same,glycan array binding signal (z-score),[38],2.35

# Part of the list above, with tabs:
binder	measurement	setting	value
Pbx1CASH domain (Cryptococcus neoformans) (protein) MDETKPLWGNPRADGISLACKDSIVERNVVYDATDGAIVLFGSAGSTVKNNHVYARTRVILGGINLVDYEPWDGDYTNVKVHHNHLYALGRYFKVGIVIGPASWSDDTESVVHSASVTDNEFSGGYWGYGIVVASAKNFEVLRNKVIWDGEQGVARFSGVPGS	glycan array binding signal (z-score)	[15]	-0.908
same	glycan array binding signal (z-score)	[31]	-0.398
